The target of assay [1] is T1, hCul1^ctd-hRbx1 (Homo sapiens, UniProt Q13616 411-776; P62877 5-108, limits assumed).
T1 construct: Complex of the C-terminal domain of human Cul1 with Rbx1; also called hCul1^ctd-Rbx1; Cul1^CTD-Rbx1
In words: ITC, hDcn1^P injected into hCul1^ctd-hRbx1. The procedure:
(§1) Protein samples were buffer matched by desalting over a NAP-5 column (GE Healthcare) into 50 mM Hepes, 125 mM NaCl, 1 mM BME, pH 7.0 (ITC buffer). Peptides were dissolved by weight to a final concentration of 10 mM in ITC buffer and diluted further in ITC buffer as required for the experiments. […] The peptide ligands (4 mM) were constantly injected (1.5 μl). The interval time between each injection was 3 minutes and the duration of each injection was 3 seconds. […] Peptide ligands (250 μM) were constantly injected (2.5 μl). The interval time between each injection was three minutes and the duration of each injection was 5 seconds. […] The interval time between each injection was 3 minutes and the duration of each injection was 5 seconds. Obtained spectra were evaluated using Origin (V 7.0) to determine heats of binding and Kd values.

The chains behind the UniProt entries cited, without tags or fusion partners. Residues count along the entry.
UniProt Q13616, 411-776 limits assumed, chain 1 of 2: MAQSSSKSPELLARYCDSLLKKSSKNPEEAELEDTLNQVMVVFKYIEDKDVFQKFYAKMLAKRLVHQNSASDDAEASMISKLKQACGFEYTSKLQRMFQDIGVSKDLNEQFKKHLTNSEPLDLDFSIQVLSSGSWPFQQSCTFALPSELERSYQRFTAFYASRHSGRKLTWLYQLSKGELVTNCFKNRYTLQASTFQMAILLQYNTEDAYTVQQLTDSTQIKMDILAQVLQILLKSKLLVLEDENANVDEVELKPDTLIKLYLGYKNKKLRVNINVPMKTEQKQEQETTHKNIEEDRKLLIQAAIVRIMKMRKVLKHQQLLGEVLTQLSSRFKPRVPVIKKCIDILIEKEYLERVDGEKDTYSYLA
hCul1^ctd-hRbx1, UniProt P62877, 5-108 limits assumed, chain 2 of 2: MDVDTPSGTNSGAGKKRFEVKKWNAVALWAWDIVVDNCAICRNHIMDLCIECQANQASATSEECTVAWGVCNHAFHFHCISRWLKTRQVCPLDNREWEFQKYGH

Assay [2] has as its target T1, hCul1^ctd-hRbx1. As to the kind of experiment: ITC; the reference value of the yeast pair is cited. The procedure: as §1

B1: hDcn1^P (residues 62 to the C-terminal residue 259 of hDcn1, aka SCCRO or DCUN1D1) (other)
chain: RKKLEQLYNRYKDPQDENKIGIDGIQQFCDDLALDPASISVLIIAWKFRAATQCEFSKQEFMDGMTELGCDSIEKLKAQIPKMEQELKEPGRFKDFYQFTFNFAKNPGQKGLDLEMAIAYWNLVLNGRFKFLDLWNKFLLEHHKRSIPKDTWNLLLDFSTMIADDMSNYDEEGAWPVLIDDFVEFARPQIAGTKSTTV
notes: Expressed as a GST fusion in E. coli; GST released by TEV protease; also called DCUN1D1^P; PONY domain of hDcn1
For B1, in the assay with hCul1^ctd-hRbx1 [1], binding was put at a Kd of 1000 nM. Moreover, the “fold worse Kd than the yeast counterparts (yCul1^C+-yRbx1:yDcn1^P)” value in the assay with hCul1^ctd-hRbx1 [2] was roughly 30 fold.

The record behind these values is US20140179593A1 (published 2014).
